Measurements from article PMC6949295 (2020).

Sequences of proteins named here, by UniProt entry; tags and fusion partners are left off.
UniProt Q9UPT5: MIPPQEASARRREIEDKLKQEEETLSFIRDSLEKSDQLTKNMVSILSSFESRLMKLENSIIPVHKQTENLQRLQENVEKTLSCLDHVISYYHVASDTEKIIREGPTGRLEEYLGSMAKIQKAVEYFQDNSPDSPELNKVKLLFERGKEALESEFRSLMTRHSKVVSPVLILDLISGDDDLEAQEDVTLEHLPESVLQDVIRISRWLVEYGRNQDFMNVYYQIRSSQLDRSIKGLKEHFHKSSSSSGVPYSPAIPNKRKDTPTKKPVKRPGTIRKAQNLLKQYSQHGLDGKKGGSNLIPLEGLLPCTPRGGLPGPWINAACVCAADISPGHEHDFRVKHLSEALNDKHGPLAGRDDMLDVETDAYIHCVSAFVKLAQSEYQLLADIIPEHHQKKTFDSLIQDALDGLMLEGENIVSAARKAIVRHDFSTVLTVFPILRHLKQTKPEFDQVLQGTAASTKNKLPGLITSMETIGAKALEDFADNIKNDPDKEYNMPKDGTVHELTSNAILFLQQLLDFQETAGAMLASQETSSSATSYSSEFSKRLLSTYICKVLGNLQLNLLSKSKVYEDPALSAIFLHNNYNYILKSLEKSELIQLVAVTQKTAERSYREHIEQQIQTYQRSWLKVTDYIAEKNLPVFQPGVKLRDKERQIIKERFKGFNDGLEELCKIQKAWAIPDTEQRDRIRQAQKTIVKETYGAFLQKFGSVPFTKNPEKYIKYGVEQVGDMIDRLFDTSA

Target: T1, HA-ULK1 (UniProt O75385)
T1 sequence: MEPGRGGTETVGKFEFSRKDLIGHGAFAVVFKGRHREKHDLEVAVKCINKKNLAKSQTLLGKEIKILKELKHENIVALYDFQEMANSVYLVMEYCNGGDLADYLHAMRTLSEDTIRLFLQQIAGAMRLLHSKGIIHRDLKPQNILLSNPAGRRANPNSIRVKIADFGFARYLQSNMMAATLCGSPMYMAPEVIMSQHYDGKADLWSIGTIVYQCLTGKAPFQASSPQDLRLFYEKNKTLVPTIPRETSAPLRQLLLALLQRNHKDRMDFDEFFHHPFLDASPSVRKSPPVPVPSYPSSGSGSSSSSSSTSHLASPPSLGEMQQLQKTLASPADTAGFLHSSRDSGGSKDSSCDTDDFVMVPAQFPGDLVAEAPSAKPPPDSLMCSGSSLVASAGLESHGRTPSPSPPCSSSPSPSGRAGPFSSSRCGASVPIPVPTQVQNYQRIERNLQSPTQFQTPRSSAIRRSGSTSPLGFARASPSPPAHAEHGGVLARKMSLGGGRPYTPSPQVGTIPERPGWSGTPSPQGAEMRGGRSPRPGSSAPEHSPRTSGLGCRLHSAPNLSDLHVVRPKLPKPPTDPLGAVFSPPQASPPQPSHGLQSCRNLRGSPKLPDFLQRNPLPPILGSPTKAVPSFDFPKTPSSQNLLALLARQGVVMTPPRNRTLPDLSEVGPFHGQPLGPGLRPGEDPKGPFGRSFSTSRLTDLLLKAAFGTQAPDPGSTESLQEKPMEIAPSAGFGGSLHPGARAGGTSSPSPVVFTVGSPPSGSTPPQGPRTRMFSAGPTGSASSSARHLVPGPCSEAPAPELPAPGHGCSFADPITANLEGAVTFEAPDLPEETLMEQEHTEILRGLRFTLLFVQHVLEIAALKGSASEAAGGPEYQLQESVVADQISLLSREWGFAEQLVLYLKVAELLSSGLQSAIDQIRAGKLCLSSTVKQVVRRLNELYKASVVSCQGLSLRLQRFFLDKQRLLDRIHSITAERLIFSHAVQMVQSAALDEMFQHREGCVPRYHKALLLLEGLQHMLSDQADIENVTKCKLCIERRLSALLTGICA
Assay: affinity purification with mass spectrometry; immunoprecipitation from cells expressing HA-tagged ULK1 against the vector control; co-precipitated proteins analysed by mass spectrometry; cell line not stated

endogenous Exo70 (from UniProt Q9UPT5 1-735)
binding: binds

Results are given in words; binding and its absence hold for the method and conditions named. Binding seen in cells or lysates may run through a third protein. A yes stands for co-enrichment or nearness to the bait. Other partners may have been found. Tags and fused reporters may be left off the sequences shown.
